These are yes or no findings as the source states them, for the method shown. Some binding calls cover weakened binding; strength is not graded here.
Molecular target: recombinant human CHI3L1 (human) (UniProt P36222)
Test: Bio-Layer Interferometry

Chains of the proteins cited; added tags and fusions are not shown. Residues count along the entry.
UniProt P36222, residues 22-383: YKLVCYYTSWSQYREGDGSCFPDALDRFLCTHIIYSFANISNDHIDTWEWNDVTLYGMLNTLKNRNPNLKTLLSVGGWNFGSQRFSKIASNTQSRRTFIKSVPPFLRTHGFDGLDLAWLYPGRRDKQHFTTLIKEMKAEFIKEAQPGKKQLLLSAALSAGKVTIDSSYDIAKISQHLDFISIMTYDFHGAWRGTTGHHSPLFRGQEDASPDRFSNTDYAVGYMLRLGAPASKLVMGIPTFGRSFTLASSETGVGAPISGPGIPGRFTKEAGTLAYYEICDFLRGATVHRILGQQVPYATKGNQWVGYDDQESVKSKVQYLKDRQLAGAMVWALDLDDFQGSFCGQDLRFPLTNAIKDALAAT

binding: binds
B1: humanized C7 antibody C7Hu (antibody, V domains shown)
VH: QVQLVESGGGVVQPGRSLRLSCAASGFTLTTYWVCWVRQAPGKGLEWVACIDAGSITYYTTWARGRFTISRDNSTNTLFLQMNSLRAEDTAVYYCARDAHYTYALVLWGRGTLVTVSS
VL: DIQMTQSPSSVSASVGDRVTIKCQASEDIESYLAWYQQKPGKAPKLLIYDASDLASGVPSRFSGSGSGTDFTLTISSLQPEDAATYYCQGYSYGSSYVGFGGGTKVEIK

Source: patent publication US20240294670A1
